Assay results taken from article PMC3720655.

By UniProt entry, the sequences of proteins in these tests, tags left out. Where a name states a change or a piece, a line headed by the entry shows the natural chain unless it says otherwise. Residues count along the entry.
UniProt P27824, residues 21-592: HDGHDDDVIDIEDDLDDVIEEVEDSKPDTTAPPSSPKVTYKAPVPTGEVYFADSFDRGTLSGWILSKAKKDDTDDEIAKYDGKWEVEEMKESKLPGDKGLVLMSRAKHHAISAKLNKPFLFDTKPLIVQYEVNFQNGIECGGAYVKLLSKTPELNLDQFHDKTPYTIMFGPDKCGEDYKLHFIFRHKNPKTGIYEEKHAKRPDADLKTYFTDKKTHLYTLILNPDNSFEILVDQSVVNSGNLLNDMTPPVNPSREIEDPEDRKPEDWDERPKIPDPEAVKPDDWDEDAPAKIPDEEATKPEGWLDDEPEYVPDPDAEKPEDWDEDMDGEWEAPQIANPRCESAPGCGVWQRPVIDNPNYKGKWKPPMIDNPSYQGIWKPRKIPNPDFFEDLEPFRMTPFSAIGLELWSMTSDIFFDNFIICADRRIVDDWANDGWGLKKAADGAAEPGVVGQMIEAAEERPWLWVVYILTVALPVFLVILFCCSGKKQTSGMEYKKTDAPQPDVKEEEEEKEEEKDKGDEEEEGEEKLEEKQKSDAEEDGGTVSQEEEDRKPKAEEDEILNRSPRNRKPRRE
UniProt P07339: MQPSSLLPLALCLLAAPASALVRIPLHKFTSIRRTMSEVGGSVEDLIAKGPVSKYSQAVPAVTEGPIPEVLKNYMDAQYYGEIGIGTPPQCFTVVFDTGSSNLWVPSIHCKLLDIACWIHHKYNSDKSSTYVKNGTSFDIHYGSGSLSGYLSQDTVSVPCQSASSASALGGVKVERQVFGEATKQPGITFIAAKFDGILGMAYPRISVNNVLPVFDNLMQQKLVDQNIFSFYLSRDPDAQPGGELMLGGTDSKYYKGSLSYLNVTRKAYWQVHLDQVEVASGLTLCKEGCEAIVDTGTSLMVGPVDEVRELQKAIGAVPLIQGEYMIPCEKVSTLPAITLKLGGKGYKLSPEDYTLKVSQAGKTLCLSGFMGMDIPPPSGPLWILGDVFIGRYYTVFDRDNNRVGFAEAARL
UniProt P60228: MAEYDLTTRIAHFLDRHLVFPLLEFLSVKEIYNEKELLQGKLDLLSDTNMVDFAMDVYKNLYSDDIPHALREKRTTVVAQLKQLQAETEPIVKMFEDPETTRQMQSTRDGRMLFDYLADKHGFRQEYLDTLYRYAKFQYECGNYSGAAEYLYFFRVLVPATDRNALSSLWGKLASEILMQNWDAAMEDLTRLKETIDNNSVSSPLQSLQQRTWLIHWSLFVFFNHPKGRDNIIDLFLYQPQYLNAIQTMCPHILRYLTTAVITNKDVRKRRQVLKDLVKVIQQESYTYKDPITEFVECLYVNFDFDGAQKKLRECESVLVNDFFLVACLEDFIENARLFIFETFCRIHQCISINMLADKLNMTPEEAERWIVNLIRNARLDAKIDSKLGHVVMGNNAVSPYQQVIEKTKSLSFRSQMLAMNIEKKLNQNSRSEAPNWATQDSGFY
UniProt P29317, residues 24-976: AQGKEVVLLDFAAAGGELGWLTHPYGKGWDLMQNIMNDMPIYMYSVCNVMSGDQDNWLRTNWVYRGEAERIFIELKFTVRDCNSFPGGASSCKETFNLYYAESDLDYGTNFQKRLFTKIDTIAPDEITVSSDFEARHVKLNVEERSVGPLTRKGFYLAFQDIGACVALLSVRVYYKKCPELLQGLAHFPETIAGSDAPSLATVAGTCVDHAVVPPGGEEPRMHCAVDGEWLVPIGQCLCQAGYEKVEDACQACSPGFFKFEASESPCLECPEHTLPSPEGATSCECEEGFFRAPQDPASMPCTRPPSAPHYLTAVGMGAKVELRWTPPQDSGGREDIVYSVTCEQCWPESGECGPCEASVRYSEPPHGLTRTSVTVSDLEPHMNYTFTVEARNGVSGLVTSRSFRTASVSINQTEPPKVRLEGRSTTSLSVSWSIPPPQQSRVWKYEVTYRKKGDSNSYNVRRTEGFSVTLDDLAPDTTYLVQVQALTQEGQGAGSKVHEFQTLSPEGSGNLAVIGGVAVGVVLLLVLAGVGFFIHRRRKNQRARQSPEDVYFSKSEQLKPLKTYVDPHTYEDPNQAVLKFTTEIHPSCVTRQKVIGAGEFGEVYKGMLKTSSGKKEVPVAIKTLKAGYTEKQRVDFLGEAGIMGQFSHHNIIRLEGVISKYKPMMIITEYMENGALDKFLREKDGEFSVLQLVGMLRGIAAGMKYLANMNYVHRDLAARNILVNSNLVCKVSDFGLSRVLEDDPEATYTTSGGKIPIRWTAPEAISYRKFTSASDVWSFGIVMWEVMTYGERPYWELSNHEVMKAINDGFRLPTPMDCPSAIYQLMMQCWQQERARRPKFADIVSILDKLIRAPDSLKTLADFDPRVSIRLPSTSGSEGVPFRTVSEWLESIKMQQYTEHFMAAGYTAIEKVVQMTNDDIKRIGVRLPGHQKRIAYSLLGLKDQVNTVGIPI
UniProt Q92522: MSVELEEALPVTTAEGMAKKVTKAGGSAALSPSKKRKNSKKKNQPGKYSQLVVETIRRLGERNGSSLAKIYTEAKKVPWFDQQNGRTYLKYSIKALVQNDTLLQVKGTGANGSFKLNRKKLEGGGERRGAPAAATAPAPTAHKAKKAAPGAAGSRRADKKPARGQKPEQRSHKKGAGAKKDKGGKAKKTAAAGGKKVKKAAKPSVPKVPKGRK
UniProt P17931: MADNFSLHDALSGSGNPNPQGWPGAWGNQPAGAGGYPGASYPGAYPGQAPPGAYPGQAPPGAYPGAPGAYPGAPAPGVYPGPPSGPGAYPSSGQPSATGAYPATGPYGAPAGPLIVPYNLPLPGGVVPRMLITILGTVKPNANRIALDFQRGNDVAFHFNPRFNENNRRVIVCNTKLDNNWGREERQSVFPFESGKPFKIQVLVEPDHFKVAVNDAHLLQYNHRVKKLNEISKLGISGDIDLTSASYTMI
UniProt P22392: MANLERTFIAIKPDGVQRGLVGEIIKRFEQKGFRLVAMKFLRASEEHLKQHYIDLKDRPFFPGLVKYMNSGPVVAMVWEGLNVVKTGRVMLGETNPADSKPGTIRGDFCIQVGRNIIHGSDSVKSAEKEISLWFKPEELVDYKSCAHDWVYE
UniProt P49721: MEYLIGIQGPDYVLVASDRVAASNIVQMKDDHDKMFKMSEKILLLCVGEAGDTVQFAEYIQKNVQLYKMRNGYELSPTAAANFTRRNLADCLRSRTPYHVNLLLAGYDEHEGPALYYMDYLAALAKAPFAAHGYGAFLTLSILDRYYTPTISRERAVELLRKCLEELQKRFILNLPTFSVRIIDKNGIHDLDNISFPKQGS
UniProt P37802: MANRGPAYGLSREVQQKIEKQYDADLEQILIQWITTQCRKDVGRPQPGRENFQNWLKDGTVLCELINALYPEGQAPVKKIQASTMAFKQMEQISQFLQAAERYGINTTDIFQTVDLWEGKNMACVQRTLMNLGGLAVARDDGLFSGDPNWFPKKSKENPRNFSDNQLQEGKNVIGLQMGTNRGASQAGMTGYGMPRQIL
UniProt Q13148: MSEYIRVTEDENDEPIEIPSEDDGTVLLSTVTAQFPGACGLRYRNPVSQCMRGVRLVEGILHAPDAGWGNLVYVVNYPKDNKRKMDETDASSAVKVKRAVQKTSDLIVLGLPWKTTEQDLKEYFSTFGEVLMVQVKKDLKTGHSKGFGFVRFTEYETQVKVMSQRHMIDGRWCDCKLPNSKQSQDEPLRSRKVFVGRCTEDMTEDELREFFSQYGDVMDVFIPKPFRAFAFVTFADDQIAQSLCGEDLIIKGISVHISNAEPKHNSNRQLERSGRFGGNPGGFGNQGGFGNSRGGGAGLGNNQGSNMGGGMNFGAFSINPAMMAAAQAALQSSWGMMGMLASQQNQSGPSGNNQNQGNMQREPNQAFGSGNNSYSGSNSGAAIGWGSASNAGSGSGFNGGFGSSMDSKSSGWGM
UniProt Q9Y490: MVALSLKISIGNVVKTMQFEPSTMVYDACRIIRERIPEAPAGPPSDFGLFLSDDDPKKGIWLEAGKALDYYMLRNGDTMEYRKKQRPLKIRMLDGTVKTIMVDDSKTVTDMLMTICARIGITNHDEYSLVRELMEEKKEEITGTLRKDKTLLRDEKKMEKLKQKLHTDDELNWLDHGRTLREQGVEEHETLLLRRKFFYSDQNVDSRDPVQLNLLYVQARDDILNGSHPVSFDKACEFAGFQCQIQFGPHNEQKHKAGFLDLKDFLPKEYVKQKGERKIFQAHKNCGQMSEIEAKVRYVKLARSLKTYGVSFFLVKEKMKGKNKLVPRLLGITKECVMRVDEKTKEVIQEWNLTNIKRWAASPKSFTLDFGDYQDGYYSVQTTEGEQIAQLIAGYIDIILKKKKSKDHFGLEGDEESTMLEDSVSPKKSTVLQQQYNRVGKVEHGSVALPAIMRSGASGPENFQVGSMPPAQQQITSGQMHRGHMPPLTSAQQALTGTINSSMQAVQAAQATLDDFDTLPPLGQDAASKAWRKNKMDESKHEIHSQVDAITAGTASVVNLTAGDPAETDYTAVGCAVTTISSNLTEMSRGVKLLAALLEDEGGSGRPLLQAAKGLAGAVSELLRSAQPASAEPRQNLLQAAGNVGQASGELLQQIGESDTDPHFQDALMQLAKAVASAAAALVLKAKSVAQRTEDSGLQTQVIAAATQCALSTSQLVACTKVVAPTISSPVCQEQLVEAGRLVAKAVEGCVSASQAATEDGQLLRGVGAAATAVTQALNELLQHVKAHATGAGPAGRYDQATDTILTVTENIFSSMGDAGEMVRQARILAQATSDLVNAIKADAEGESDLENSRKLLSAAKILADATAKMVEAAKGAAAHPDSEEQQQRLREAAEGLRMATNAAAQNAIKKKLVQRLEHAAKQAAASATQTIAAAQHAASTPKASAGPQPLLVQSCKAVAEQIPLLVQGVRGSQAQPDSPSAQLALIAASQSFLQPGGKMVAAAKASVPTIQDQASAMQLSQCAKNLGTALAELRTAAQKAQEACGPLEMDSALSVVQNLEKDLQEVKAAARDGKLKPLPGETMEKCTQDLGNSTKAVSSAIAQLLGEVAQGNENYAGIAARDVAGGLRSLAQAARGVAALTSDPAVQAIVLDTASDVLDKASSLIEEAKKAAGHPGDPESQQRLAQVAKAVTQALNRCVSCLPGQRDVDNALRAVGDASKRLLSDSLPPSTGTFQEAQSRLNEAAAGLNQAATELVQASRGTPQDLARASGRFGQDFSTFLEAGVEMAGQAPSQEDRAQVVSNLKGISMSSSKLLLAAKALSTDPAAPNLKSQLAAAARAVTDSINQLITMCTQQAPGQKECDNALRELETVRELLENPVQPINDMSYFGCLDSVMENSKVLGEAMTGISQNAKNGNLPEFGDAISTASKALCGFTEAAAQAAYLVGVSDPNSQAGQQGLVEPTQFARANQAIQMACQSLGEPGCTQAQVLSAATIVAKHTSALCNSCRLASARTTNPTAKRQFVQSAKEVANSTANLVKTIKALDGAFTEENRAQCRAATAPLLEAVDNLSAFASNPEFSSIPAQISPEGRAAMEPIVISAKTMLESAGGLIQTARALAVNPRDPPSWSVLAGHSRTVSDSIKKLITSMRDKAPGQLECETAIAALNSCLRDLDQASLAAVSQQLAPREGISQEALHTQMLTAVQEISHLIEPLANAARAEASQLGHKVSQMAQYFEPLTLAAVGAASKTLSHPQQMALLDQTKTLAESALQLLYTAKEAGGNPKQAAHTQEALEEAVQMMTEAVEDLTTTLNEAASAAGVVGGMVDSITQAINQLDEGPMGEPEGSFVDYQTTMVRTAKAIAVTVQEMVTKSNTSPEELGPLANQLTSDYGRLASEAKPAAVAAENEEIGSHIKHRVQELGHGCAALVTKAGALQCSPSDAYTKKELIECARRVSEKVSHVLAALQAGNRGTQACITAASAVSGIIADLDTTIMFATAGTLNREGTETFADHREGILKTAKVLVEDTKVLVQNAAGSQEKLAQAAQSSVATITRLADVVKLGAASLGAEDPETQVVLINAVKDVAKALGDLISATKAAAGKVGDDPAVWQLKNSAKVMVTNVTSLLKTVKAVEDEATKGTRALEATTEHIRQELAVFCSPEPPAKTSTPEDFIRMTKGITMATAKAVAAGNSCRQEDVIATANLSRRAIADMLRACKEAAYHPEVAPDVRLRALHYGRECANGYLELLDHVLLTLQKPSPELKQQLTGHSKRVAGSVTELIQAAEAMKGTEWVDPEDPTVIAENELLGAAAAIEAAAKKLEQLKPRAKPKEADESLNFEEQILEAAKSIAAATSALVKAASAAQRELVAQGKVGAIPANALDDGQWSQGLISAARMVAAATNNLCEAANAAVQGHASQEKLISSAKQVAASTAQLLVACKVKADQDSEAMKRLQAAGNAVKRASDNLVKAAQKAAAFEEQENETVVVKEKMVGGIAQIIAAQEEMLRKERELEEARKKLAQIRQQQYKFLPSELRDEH

B1: HPRT1 (protein, UniProt P00492 1-218)
chain: MATRSPGVVISDDEPGYDLDLFCIPNHYAEDLERVFIPHGLIMDRTERLARDVMKEMGGHHIVALCVLKGGYKFFADLLDYIKALNRNSDRSIPMTVDFIRLKSYCNDQSTGDIKVIGGDDLSTLTGKNVLIVEDIIDTGKTMQTLLSLVRQYNPKMVKVASLLVKRTPRSVGYKPDFVGFEIPDKFVVGYALDYNEYFRDLNHVCVISETGKAKYKA
B2: MFGE8 (protein, UniProt Q08431 24-387)
chain: LDICSKNPCHNGGLCEEISQEVRGDVFPSYTCTCLKGYAGNHCETKCVEPLGLENGNIANSQIAASSVRVTFLGLQHWVPELARLNRAGMVNAWTPSSNDDNPWIQVNLLRRMWVTGVVTQGASRLASHEYLKAFKVAYSLNGHEFDFIHDVNKKHKEFVGNWNKNAVHVNLFETPVEAQYVRLYPTSCHTACTLRFELLGCELNGCANPLGLKNNSIPDKQITASSSYKTWGLHLFSWNPSYARLDKQGNFNAWVAGSYGNDQWLQVDLGSSKEVTGIITQGARNFGSVQFVASYKVAYSNDSANWTEYQDPRTGSSKIFPGNWDNHSHKKNLFETPILARYVRILPVAWHNRIALRLELLGC
B3: TKT (protein, UniProt P29401 1-623)
chain: MESYHKPDQQKLQALKDTANRLRISSIQATTAAGSGHPTSCCSAAEIMAVLFFHTMRYKSQDPRNPHNDRFVLSKGHAAPILYAVWAEAGFLAEAELLNLRKISSDLDGHPVPKQAFTDVATGSLGQGLGAACGMAYTGKYFDKASYRVYCLLGDGELSEGSVWEAMAFASIYKLDNLVAILDINRLGQSDPAPLQHQMDIYQKRCEAFGWHAIIVDGHSVEELCKAFGQAKHQPTAIIAKTFKGRGITGVEDKESWHGKPLPKNMAEQIIQEIYSQIQSKKKILATPPQEDAPSVDIANIRMPSLPSYKVGDKIATRKAYGQALAKLGHASDRIIALDGDTKNSTFSEIFKKEHPDRFIECYIAEQNMVSIAVGCATRNRTVPFCSTFAAFFTRAFDQIRMAAISESNINLCGSHCGVSIGEDGPSQMALEDLAMFRSVPTSTVFYPSDGVATEKAVELAANTKGICFIRTSRPENAIIYNNNEDFQVGQAKVVLKSKDDQVTVIGAGVTLHEALAAAELLKKEKINIRVLDPFTIKPLDRKLILDSARATKGRILTVEDHYYEGGIGEAVSSAVVGEPGITVTHLAVNRVPRSGKPAELLKMFGIDRDAIAQAVRGLITKA
B4: calpain small subunit (CAPNS1) (protein, UniProt P04632 1-268)
chain: MFLVNSFLKGGGGGGGGGGGLGGGLGNVLGGLISGAGGGGGGGGGGGGGGGGGGGGTAMRILGGVISAISEAAAQYNPEPPPPRTHYSNIEANESEEVRQFRRLFAQLAGDDMEVSATELMNILNKVVTRHPDLKTDGFGIDTCRSMVAVMDSDTTGKLGFEEFKYLWNNIKRWQAIYKQFDTDRSGTICSSELPGAFEAAGFHLNEHLYNMIIRRYSDESGNMDFDNFISCLVRLDAMFRAFKSLDKDGTGQIQVNIQEWLQLTMYS
B5: CTNND1 (protein, UniProt O60716 1-968)
chain: MDDSEVESTASILASVKEQEAQFEKLTRALEEERRHVSAQLERVRVSPQDANPLMANGTLTRRHQNGRFVGDADLERQKFSDLKLNGPQDHSHLLYSTIPRMQEPGQIVETYTEEDPEGAMSVVSVETSDDGTTRRTETTVKKVVKTVTTRTVQPVAMGPDGLPVDASSVSNNYIQTLGRDFRKNGNGGPGPYVGQAGTATLPRNFHYPPDGYSRHYEDGYPGGSDNYGSLSRVTRIEERYRPSMEGYRAPSRQDVYGPQPQVRVGGSSVDLHRFHPEPYGLEDDQRSMGYDDLDYGMMSDYGTARRTGTPSDPRRRLRSYEDMIGEEVPSDQYYWAPLAQHERGSLASLDSLRKGGPPPPNWRQPELPEVIAMLGFRLDAVKSNAAAYLQHLCYRNDKVKTDVRKLKGIPVLVGLLDHPKKEVHLGACGALKNISFGRDQDNKIAIKNCDGVPALVRLLRKARDMDLTEVITGTLWNLSSHDSIKMEIVDHALHALTDEVIIPHSGWEREPNEDCKPRHIEWESVLTNTAGCLRNVSSERSEARRKLRECDGLVDALIFIVQAEIGQKDSDSKLVENCVCLLRNLSYQVHREIPQAERYQEAAPNVANNTGPHAASCFGAKKGKDEWFSRGKKPIEDPANDTVDFPKRTSPARGYELLFQPEVVRIYISLLKESKTPAILEASAGAIQNLCAGRWTYGRYIRSALRQEKALSAIADLLTNEHERVVKAASGALRNLAVDARNKELIGKHAIPNLVKNLPGGQQNSSWNFSEDTVISILNTINEVIAENLEAAKKLRETQGIEKLVLINKSGNRSEKEVRAAALVLQTIWGYKELRKPLEKEGWKKSDFQVNLNNASRSQSSHSYDDSTLPLIDRNQKSDKKPDREEIQMSNMGSNTKSLDNNYSTPNERGDHNRTLDRSGDLGDMEPLKGTTPLMQDEGQESLEEELDVLVLDDEGGQVSYPSMQKI
B6: HYOU1 (protein, UniProt Q9Y4L1 33-999)
chain: LAVMSVDLGSESMKVAIVKPGVPMEIVLNKESRRKTPVIVTLKENERFFGDSAASMAIKNPKATLRYFQHLLGKQADNPHVALYQARFPEHELTFDPQRQTVHFQISSQLQFSPEEVLGMVLNYSRSLAEDFAEQPIKDAVITVPVFFNQAERRAVLQAARMAGLKVLQLINDNTATALSYGVFRRKDINTTAQNIMFYDMGSGSTVCTIVTYQMVKTKEAGMQPQLQIRGVGFDRTLGGLEMELRLRERLAGLFNEQRKGQRAKDVRENPRAMAKLLREANRLKTVLSANADHMAQIEGLMDDVDFKAKVTRVEFEELCADLFERVPGPVQQALQSAEMSLDEIEQVILVGGATRVPRVQEVLLKAVGKEELGKNINADEAAAMGAVYQAAALSKAFKVKPFVVRDAVVYPILVEFTREVEEEPGIHSLKHNKRVLFSRMGPYPQRKVITFNRYSHDFNFHINYGDLGFLGPEDLRVFGSQNLTTVKLKGVGDSFKKYPDYESKGIKAHFNLDESGVLSLDRVESVFETLVEDSAEEESTLTKLGNTISSLFGGGTTPDAKENGTDTVQEEEESPAEGSKDEPGEQVELKEEAEAPVEDGSQPPPPEPKGDATPEGEKATEKENGDKSEAQKPSEKAEAGPEGVAPAPEGEKKQKPARKRRMVEEIGVELVVLDLPDLPEDKLAQSVQKLQDLTLRDLEKQEREKAANSLEAFIFETQDKLYQPEYQEVSTEEQREEISGKLSAASTWLEDEGVGATTVMLKEKLAELRKLCQGLFFRVEERKKWPERLSALDNLLNHSSMFLKGARLIPEMDQIFTEVEMTTLEKVINETWAWKNATLAEQAKLPATEKPVLLSKDIEAKMMALDREVQYLLNKAKFTKPRPRPKDKNGTRAEPPLNASASDQGEKVIPPAGQTEDAEPISEPEKVETGSEPGDTEPLELGGPGAEPEQKEQSTGQKRPLKNDEL

Molecular target: T1, KIAA1199-V5 (human) (UniProt Q8WUJ3)
T1 sequence: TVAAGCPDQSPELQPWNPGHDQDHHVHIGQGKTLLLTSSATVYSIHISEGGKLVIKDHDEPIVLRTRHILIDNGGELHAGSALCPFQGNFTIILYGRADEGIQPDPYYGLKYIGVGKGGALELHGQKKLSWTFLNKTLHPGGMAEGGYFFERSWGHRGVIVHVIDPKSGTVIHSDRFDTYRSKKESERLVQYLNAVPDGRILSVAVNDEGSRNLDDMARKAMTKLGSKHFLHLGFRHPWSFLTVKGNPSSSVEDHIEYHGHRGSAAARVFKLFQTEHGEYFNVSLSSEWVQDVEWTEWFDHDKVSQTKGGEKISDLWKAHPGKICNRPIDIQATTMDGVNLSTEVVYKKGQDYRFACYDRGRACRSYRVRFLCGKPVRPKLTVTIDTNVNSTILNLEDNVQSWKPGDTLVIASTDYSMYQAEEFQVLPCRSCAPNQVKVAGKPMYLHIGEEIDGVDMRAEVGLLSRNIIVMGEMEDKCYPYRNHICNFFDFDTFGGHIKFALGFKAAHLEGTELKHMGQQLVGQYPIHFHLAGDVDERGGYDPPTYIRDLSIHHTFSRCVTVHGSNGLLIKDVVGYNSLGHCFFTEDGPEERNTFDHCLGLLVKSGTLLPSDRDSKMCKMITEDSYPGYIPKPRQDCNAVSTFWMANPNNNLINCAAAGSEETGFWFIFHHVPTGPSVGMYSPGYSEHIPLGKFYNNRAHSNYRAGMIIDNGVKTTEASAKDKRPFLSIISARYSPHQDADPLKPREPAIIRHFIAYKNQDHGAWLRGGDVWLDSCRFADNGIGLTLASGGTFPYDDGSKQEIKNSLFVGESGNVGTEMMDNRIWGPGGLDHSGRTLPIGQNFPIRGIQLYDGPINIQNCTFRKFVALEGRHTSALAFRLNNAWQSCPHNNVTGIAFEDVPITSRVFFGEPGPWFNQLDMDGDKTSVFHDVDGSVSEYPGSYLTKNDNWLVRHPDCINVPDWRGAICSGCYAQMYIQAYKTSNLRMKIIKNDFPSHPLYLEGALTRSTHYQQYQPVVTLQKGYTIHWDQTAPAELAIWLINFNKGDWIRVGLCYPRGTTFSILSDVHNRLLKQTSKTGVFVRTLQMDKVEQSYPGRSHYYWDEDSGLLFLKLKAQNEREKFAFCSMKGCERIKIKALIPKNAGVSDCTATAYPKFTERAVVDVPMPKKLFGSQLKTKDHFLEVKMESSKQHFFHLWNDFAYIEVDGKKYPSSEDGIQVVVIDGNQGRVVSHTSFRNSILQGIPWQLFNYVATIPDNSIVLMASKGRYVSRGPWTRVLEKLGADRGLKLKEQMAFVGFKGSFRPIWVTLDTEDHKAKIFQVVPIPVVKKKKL
Assay: affinity purification with mass spectrometry; three independent IPs of KIAA1199 from SW480 clone extracts (exp. 1 and 3 KIAA1199-V5, exp. 2 KIAA1199-Cl.18); IP lysis buffer 150 mM NaCl, 1% NP-40, 50 mM Tris-HCl pH 8.0; gel slices, trypsin, LTQ-Orbitrap or LTQ-ICR-FT-Ultra; hits in at least 2 of 3 experiments against control immunoprecipitates

binding, binds:
CANX (from UniProt P27824 21-592)
CTSD (from UniProt P07339)
EIF3E (from UniProt P60228 1-445)
EPHA2 (from UniProt P29317 24-976) (receptor)
H1FX (from UniProt Q92522 1-213)
HSP90B1 (from UniProt P14625 22-803)
ITPR3 (from UniProt Q14573 1-2671) (receptor)
LGALS3 (from UniProt P17931 1-250)
LRP1 (from UniProt Q07954 20-4544) (receptor)
NME2 (from UniProt P22392 1-152)
PSMB2 (from UniProt P49721 1-201)
TAGLN2 (from UniProt P37802 1-199)
TARDBP (from UniProt Q13148 1-414)
TLN1 (from UniProt Q9Y490 1-2541)
UBR5 (from UniProt O95071 1-2799)

Molecular target: T1, KIAA1199-V5 (human)
Assay: as above
Remark: another data set of the same source

binding, binds:
B1
B2
B3
B4
B5
B6

No constants are given. Whether binding was seen depends on the method and setting. Binding seen in cells or lysates may run through a third protein. These calls come from enrichment with a bait or labelling near it, and not all partners need be listed. Tags and fused reporters may be left off the sequences shown.
